According to paper PMC11256434:
Results are given in words; binding and its absence hold for the method and conditions named. In cells and extracts the contact can be indirect. Some entries that bind do so weakly or less than the wild type.

The chains behind the UniProt entries cited, without tags or fusion partners.
UniProt Q9NRC8: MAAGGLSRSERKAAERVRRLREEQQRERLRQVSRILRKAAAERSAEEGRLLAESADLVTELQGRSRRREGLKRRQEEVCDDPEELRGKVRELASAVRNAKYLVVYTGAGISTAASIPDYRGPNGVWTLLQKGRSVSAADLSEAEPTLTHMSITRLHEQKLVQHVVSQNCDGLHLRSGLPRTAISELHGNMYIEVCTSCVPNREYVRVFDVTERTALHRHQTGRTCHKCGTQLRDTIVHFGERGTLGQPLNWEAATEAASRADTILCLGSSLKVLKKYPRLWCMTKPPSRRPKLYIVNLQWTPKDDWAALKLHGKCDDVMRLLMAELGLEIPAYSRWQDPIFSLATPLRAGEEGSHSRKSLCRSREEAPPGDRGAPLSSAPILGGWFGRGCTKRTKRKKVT

Target: T1, Forkhead Box M1 (human (endogenous in HEK-293T)) (UniProt Q08050)
T1 sequence: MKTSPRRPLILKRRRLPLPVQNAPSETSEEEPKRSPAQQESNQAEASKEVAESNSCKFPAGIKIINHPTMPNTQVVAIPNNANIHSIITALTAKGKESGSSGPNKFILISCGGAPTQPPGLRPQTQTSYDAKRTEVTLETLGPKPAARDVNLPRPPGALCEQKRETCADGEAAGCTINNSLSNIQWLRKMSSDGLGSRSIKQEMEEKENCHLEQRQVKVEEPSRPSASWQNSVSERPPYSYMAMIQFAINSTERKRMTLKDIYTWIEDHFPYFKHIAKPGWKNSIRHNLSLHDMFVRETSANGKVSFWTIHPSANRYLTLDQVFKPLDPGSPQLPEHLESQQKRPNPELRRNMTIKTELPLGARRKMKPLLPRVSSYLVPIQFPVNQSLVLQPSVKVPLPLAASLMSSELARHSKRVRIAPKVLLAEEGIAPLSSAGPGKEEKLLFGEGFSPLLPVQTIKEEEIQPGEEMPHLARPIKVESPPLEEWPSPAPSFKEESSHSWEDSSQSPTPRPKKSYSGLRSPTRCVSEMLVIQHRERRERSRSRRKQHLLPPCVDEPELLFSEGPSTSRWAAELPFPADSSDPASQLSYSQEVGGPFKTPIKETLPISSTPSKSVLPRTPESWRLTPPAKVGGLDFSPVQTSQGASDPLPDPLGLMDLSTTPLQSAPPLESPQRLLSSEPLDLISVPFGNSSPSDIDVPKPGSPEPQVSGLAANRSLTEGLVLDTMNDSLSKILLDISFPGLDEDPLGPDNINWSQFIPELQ
Assay: co-IP; HEK-293T cells lysed in RIPA buffer with protease inhibitors; FOXM1, SIRT7 or IgG antibody overnight at 4 °C, protein A agarose beads, western blot

binding: binds
Substance: sirtuin 7 (from UniProt Q9NRC8 1-400) (enzyme)
